Test results reported in article doi:10.1101/2021.06.01.446599.
These are yes or no findings as the source states them, for the method shown. Where a sequence is shown, tags or fusion partners need not be part of it.

Chains of the proteins cited; added tags and fusions are not shown.
UniProt O61967: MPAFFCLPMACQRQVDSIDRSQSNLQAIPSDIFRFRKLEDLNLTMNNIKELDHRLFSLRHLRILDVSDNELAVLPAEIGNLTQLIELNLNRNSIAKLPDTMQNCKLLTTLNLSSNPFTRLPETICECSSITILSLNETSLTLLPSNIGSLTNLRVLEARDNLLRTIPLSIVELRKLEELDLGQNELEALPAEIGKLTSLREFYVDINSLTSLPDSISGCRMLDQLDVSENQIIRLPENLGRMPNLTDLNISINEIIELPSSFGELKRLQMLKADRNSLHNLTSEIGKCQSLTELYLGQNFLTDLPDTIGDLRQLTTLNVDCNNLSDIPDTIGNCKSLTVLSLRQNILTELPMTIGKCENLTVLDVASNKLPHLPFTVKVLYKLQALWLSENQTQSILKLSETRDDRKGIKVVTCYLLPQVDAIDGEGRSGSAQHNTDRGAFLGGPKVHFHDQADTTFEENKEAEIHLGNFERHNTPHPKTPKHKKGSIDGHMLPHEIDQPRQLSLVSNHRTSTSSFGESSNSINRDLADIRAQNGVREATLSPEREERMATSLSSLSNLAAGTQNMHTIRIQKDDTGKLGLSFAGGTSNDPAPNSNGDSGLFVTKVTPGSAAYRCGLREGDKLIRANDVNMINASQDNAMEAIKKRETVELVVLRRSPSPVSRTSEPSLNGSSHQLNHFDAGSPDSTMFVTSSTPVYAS

What was measured:
[1] = target: T1, DLG-1 (fluorescently tagged at the endogenous locus, Figure 5A, B, D, E) (C. elegans) (UniProt G5ECY0); experiment: CeLINC
T1 sequence: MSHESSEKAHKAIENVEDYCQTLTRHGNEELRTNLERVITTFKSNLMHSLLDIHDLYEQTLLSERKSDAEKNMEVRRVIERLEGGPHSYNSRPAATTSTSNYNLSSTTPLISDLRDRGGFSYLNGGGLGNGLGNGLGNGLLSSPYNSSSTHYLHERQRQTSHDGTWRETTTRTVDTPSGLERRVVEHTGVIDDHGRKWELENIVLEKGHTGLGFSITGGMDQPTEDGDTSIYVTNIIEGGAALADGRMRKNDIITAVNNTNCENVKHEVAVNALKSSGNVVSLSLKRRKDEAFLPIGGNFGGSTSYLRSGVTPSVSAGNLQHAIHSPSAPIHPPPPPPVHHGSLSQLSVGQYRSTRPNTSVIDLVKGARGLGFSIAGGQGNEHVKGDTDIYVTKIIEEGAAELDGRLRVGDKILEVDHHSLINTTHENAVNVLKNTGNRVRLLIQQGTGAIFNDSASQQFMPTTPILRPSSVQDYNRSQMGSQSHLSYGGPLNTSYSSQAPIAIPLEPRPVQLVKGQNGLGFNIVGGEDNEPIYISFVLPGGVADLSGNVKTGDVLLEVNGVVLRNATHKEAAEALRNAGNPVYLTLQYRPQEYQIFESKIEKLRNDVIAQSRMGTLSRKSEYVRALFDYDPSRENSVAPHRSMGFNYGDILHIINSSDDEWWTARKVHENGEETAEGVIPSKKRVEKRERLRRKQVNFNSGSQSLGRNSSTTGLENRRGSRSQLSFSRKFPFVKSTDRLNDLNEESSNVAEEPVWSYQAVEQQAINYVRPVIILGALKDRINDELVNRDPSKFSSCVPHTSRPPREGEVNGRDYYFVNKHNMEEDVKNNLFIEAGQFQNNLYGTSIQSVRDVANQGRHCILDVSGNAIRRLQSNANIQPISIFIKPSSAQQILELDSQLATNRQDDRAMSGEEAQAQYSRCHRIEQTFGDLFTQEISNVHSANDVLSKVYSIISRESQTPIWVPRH

[2] = target: LET-413 (fluorescently tagged at the endogenous locus) (C. elegans) (UniProt O61967); experiment: CeLINC

LET-413 (fluorescently tagged at the endogenous locus) (from UniProt O61967 1-699)
binding [1]: no binding

B1: DLG-1 (fluorescently tagged at the endogenous locus, Figure 5A, B, D, E) (protein, UniProt G5ECY0 1-967)
chain: MSHESSEKAHKAIENVEDYCQTLTRHGNEELRTNLERVITTFKSNLMHSLLDIHDLYEQTLLSERKSDAEKNMEVRRVIERLEGGPHSYNSRPAATTSTSNYNLSSTTPLISDLRDRGGFSYLNGGGLGNGLGNGLGNGLLSSPYNSSSTHYLHERQRQTSHDGTWRETTTRTVDTPSGLERRVVEHTGVIDDHGRKWELENIVLEKGHTGLGFSITGGMDQPTEDGDTSIYVTNIIEGGAALADGRMRKNDIITAVNNTNCENVKHEVAVNALKSSGNVVSLSLKRRKDEAFLPIGGNFGGSTSYLRSGVTPSVSAGNLQHAIHSPSAPIHPPPPPPVHHGSLSQLSVGQYRSTRPNTSVIDLVKGARGLGFSIAGGQGNEHVKGDTDIYVTKIIEEGAAELDGRLRVGDKILEVDHHSLINTTHENAVNVLKNTGNRVRLLIQQGTGAIFNDSASQQFMPTTPILRPSSVQDYNRSQMGSQSHLSYGGPLNTSYSSQAPIAIPLEPRPVQLVKGQNGLGFNIVGGEDNEPIYISFVLPGGVADLSGNVKTGDVLLEVNGVVLRNATHKEAAEALRNAGNPVYLTLQYRPQEYQIFESKIEKLRNDVIAQSRMGTLSRKSEYVRALFDYDPSRENSVAPHRSMGFNYGDILHIINSSDDEWWTARKVHENGEETAEGVIPSKKRVEKRERLRRKQVNFNSGSQSLGRNSSTTGLENRRGSRSQLSFSRKFPFVKSTDRLNDLNEESSNVAEEPVWSYQAVEQQAINYVRPVIILGALKDRINDELVNRDPSKFSSCVPHTSRPPREGEVNGRDYYFVNKHNMEEDVKNNLFIEAGQFQNNLYGTSIQSVRDVANQGRHCILDVSGNAIRRLQSNANIQPISIFIKPSSAQQILELDSQLATNRQDDRAMSGEEAQAQYSRCHRIEQTFGDLFTQEISNVHSANDVLSKVYSIISRESQTPIWVPRH
binding [2]: no binding
